Source: US8426353B2, “Process for preparing polyurea microcapsules” (Firmenich SA, priority 2008, dated 2013)

Tests used:
[1] = GC-MS analysis of perfume leaked out of the capsules during one month storage in concentrated liquid detergent; type: physicochemical; settings: perfume of Example 9 encapsulated per Example 2, capsules at 1.25% in Tide 2x Concentrated HE Free
Text: The concentrated liquid detergent base was a commercially available Tide® 2× Concentrated HE Free of perfume & dye (trademark of Procter and Gamble, USA).
The concentrated liquid detergent base was the commercially available Tide® 2× Concentrated HE Free of perfume & dye (trademark of Procter and Gamble, USA).

[2] = GC-MS analysis of perfume leaked out of the capsules during one month storage in concentrated fabric softener; type: physicochemical; settings: perfume of Example 9 encapsulated per Example 2, capsules at 1.25%
Description: The concentrated fabric softener base was prepared by admixing the ingredients listed in Table 4, in the amounts indicated.

CCCCCCCC1CCC(=O)O1 (stereo not shown) [γ-Undecalactone]
Percentage of perfume having leaked out of the capsules upon one month storage, % In Concentrated Liquid Detergent at 22° C. ([1]; one month at 22° C.): 26% | Percentage of perfume having leaked out of the capsules upon one month storage, % In Concentrated Liquid Detergent at 37° C. ([1]; one month at 37° C.): 90% | Percentage of perfume having leaked out of the capsules upon one month storage, % In fabric softener at 22° C. ([2]; one month at 22° C.): 26% | Percentage of perfume having leaked out of the capsules upon one month storage, % In fabric softener at 37° C. ([2]; one month at 37° C.): 100%
